Results taken from paper PMC4231161.

Molecular target: myosin light chain 1 (MLC1) (Toxoplasma gondii (endogenous in tachyzoites))
Assay: co-IP; polyclonal anti-MLC1 or anti-GAP45 antibodies on [35S]-labelled wild type (RH) and MyoA-KO parasites and on MyoA-iKO parasites +/- ATc, Triton X-100 lysate, autoradiography, bands quantified with ImageJ

B1: gliding-associated protein GAP45 (protein, UniProt Q7Z289 1-245)
chain: MGNACKKNTAKTPTRKEAEDLAEKERQEREAKEKAEAEEKARAEAEKNAADKAEAERRAAEAREREESARKEAEAEAARKAEAEAAEAERLRKEAEKKKAEEAKRKAEEEQRAAAEEAEQRAREEAERRKAEAAAAAERERQMQEALKQEEMSPREKYDKLASPEDSASETTMATQPQKVAEHSSAAVTDRSVVGYTVTPCDMAAIDETAKYLSKRCGCDLGDQHDENECPICRHIDLSDAPLLN
  binding: binds

These are yes or no findings as the source states them, for the method shown. In cells and extracts the contact can be indirect. Binding can be weak; no strength is given.
